According to the supplement of paper PMC10849652:
The other results are listed elsewhere or left out.

Sequences of proteins named here, by UniProt entry; tags and fusion partners are left off. A change or cut given only in a name is not applied to a line headed by its entry.
UniProt Q15833: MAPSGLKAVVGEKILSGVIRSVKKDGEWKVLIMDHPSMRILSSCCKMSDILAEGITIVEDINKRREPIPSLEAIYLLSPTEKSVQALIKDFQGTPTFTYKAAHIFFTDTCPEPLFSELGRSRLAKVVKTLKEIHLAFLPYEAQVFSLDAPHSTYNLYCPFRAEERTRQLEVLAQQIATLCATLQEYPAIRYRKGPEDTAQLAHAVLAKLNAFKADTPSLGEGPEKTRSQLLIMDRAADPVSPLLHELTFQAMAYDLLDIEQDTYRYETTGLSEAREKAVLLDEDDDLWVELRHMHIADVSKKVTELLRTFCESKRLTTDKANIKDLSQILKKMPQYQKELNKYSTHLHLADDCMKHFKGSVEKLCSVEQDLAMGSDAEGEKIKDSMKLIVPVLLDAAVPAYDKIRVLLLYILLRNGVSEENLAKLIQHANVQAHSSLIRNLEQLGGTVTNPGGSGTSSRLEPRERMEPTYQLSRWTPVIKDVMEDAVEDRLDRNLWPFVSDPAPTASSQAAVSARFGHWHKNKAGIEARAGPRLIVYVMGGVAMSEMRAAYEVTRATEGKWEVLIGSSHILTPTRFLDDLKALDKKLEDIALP
UniProt Q8NEM7: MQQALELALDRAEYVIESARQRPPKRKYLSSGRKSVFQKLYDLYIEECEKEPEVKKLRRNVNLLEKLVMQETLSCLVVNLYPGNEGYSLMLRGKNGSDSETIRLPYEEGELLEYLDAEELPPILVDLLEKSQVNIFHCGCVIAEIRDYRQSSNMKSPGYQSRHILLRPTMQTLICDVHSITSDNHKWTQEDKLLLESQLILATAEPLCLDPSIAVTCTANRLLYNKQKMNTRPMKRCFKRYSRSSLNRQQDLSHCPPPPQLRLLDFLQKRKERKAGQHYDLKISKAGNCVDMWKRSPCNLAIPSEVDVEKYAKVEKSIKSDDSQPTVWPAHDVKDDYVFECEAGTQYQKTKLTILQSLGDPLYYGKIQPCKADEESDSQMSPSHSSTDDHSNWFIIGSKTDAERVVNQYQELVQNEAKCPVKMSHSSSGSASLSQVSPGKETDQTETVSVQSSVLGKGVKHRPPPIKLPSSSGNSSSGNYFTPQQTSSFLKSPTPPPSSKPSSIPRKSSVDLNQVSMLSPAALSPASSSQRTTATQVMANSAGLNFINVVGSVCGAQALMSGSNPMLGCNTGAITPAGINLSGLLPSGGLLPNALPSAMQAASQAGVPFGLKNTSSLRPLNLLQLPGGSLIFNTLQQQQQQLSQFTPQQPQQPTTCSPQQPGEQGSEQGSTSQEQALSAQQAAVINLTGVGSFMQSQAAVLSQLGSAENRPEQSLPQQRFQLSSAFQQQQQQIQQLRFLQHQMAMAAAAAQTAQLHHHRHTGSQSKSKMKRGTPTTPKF
UniProt Q5T5C0: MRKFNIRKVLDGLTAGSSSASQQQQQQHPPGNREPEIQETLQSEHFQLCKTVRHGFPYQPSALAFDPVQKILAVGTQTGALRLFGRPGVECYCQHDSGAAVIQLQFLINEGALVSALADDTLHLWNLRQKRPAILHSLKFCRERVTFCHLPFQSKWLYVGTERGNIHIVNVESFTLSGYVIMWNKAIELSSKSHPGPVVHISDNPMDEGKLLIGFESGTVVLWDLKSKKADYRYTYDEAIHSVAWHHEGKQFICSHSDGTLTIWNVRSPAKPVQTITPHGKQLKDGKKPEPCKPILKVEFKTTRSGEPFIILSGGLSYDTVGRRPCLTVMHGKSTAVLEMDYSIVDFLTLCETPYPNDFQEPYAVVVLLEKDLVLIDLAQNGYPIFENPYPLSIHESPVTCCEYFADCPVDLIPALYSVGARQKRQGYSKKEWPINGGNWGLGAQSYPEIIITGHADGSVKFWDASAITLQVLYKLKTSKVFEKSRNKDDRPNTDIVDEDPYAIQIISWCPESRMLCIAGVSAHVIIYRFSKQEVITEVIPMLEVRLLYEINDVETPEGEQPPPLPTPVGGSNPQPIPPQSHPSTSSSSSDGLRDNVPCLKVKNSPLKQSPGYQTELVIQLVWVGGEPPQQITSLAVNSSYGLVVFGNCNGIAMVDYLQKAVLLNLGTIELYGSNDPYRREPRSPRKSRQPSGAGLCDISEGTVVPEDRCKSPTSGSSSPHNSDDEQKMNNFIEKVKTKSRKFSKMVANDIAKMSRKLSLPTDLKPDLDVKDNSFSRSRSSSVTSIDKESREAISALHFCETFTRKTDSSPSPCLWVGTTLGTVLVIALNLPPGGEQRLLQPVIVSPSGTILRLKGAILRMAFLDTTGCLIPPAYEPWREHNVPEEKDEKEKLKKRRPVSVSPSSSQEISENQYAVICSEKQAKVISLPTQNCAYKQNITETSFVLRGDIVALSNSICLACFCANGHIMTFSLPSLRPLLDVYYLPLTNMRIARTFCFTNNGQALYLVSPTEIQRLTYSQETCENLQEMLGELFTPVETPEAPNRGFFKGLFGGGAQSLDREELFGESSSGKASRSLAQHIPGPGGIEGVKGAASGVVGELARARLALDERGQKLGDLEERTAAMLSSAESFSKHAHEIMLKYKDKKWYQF
UniProt Q9P2R7: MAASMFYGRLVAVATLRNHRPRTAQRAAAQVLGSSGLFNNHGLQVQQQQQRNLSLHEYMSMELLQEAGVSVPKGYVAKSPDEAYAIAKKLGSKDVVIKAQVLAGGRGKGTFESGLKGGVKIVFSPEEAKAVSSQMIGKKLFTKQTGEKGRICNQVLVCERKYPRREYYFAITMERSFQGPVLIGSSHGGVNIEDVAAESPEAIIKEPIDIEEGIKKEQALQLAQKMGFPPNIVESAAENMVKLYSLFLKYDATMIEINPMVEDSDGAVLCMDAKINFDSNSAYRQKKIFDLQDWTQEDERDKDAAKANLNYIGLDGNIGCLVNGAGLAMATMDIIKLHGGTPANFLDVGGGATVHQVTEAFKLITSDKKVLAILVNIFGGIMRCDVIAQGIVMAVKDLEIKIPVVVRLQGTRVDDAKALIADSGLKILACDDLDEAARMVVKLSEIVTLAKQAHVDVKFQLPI

How the values were obtained:
Assay in all cases: log2 fold change, soluble protein after heating vs DMSO (PISA); higher = thermal stabilisation; K562 lysate, 10 uM; active = over 0.2 and 3.5 SD of the protein, either way, in both replicates (recomputed)
[1] = compound: C#Cc1cccc(Nc2ncnc3cc(OCCOC)c(OCCOC)cc23)c1 [erlotinib]
In short: (§1)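 Thermal stability, expressed as log-two fold change relative to solvent controls, is given from duplicates. Crude K562 extract in PBS pH 7.4 with 1 mM MgCl2, at 1 mg/mL protein, was treated with 10 μM compound for 30 min and heated in aliquots for 3 min across 48°C-58°C. After pooling, adjustment to 0.5% NP-40 at 4°C and centrifugation at 21,000xg for 90 min, supernatant protein was measured by TMTpro 16plex LC-MS/MS with channel sums equalised.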

[2] = compound: C/C(=N\NC(=O)C1=CC(=CC=C1)S(=O)(=O)N2CCOCC2)/C3=C(C=CC(=C3)Cl)O
In short: as §1

[3] = compound: C1=CC(=CC=C1C2=NC3=C(N2)C=C(C=C3)C(=O)N)OC4=CC=C(C=C4)Cl
In short: as §1

[4] = compound: C1=CC2=C(C=CC(=C2)/C=C\3/C(=O)NC(=NCC4=CC=CS4)S3)N=C1
In short: as §1

[5] = compound: C1=CC2=NC=CN=C2C=C1/C=C/3\C(=O)NC(=O)S3
In short: as §1

[6] = compound: C1=CC=C(C=C1)C2=NC(=C(N2)C3=CC=NC=C3)C4=CC(=C(C=C4)Cl)O
In short: as §1

[7] = compound: C1=CC=C2C(=C1)C3=NNC4=CC=CC(=C43)C2=O
In short: as §1

[8] = compound: C1CCN(C1)C(=O)NC2=CC=CC(=C2)NC3=NC=C(C(=N3)NCCC4=CN=CN4)Br
In short: as §1

[9] = compound: C1CN(CCC1(CC2=CC=C(C=C2)Cl)N)C3=NC=NC4=C3C=CN4
In short: as §1

[10] = compound: C1COCCN1CCN2C3=CC=CC=C3N=C2NC(=O)C4=CC(=CC=C4)[N+](=O)[O-] [IRAK-1-4 Inhibitor I]
In short: as §1

[11] = compound: C=CC(=O)N1CCC[C@@H](n2nc(-c3ccc(Oc4ccccc4)cc3)c3c(N)ncnc32)C1 [ibrutinib]
In short: as §1

[12] = compound: CC(=O)c1cnc2ccc(-c3cc(Cl)c(O)c(Cl)c3)nc2c1N[C@H]1CC[C@H](CN(C)C)CC1
In short: as §1

[13] = compound: CC(C)(C)Cn1c(N)nc2ccc(-c3[nH]c(C(C)(C)C)nc3-c3ccc(F)cc3)nc21 [ralimetinib]
In short: as §1

[14] = compound: CC(C)(O)CC(=O)NCCn1ccc2ncnc(Nc3ccc(Oc4cccc(C(F)(F)F)c4)c(Cl)c3)c21
In short: as §1

[15] = compound: CC(C)C1=C2N=C(C=C(N2N=C1)NCC3=CC=CC=C3)NCCCCCCN
In short: as §1

[16] = compound: CC1=C(C(CC(=O)N1)C2=CC=C(C=C2)C(F)(F)F)C(=O)NC3=C(C=C4C(=C3)C=NN4)F
In short: as §1

[17] = compound: CC1=C(C2=C(C=C1)C(=O)C3=CC=CC=C3N2CCCN)C
In short: as §1

[18] = compound: CC1=C(C=C(C=C1)NC(=O)C2=CC(=CC=C2)C(C)(C)C#N)NC3=CC4=C(C=C3)N=CN(C4=O)C
In short: as §1

[19] = compound: CC1=C(C=C(C=C1)NC(=O)C2=CC(=CC=C2)N(C)C)NC(=O)C3=CC=C(C=C3)O
In short: as §1

[20] = compound: CC1=CC=C(C=C1)SC2=C3C=C(SC3=CN=C2)C(=O)N
In short: as §1

Measured: log2 fold change

STXBP2 (UniProt Q15833)
inactive: [1] -0.002 | [2] 0.042 | [3] -0.021 | [4] 0.019 | [5] -0.001 | [6] -0.004 | [7] 0.001 | [8] 0.011 | [9] -0.002 | [10] 0.017 | [11] 0.009 | [12] 0.009 | [13] -0.003 | [14] 0.007 | [15] -0.005 | [16] -0.02 | [17] 0.005 | [18] 0.002 | [19] 0.039 | [20] 0.004

SUPT20H isoform 3 (UniProt Q8NEM7)
inactive: [1] 0.069 | [2] -0.099 | [3] 0.269 | [4] -0.018 | [5] -0.114 | [6] 0.287 | [7] 0.223 | [8] -0.116 | [9] -0.064 | [10] -0.007 | [11] -0.316 | [12] -0.062 | [13] -0.045 | [14] -0.209 | [15] 0.017 | [16] -0.025 | [17] -0.091 | [18] 0.13 | [19] 0.018 | [20] -0.118

STXBP5 (UniProt Q5T5C0)
inactive: [1] -0.022 | [2] -0.047 | [3] 0.031 | [4] -0.005 | [5] -0.022 | [6] 0.015 | [7] -0.018 | [8] -0.038 | [9] 0.006 | [10] -0.026 | [11] -0.001 | [12] 0.003 | [13] -0.006 | [14] 0.005 | [15] -0.01 | [16] 0.014 | [17] -0.038 | [18] 0.039 | [19] -0.006 | [20] -0.008

SUCLA2 (UniProt Q9P2R7)
inactive: [1] 0.006 | [2] -0.015 | [3] -0.016 | [4] -0.041 | [5] -0.011 | [6] -0.012 | [7] -0.07 | [8] -0.061 | [9] -0.007 | [10] -0.001 | [11] 0.002 | [12] 0.045 | [13] 0.002 | [14] 0.004 | [15] 0.004 | [16] -0.011 | [17] -0.014 | [18] -0.018 | [19] -0.018 | [20] 0.002
